Laboratory results: publication PMC11656736
These are yes or no findings as the source states them, for the method shown. Some results given as binding are weak or reduced against the parent protein; the word gives no strength. Tags and fused reporters may be left off the sequences shown.

Protein sequences, listed by entry. Tags and fused reporters are not part of them.
UniProt O07329: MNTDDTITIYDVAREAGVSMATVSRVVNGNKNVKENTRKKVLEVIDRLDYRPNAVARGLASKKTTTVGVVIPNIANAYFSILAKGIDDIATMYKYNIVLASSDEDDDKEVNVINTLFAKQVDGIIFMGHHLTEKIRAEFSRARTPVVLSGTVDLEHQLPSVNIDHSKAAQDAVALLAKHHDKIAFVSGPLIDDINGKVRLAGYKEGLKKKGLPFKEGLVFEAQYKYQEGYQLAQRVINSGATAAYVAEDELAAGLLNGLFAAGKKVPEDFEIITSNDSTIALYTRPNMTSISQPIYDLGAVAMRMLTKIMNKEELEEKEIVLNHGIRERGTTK
UniProt Q8DUI0: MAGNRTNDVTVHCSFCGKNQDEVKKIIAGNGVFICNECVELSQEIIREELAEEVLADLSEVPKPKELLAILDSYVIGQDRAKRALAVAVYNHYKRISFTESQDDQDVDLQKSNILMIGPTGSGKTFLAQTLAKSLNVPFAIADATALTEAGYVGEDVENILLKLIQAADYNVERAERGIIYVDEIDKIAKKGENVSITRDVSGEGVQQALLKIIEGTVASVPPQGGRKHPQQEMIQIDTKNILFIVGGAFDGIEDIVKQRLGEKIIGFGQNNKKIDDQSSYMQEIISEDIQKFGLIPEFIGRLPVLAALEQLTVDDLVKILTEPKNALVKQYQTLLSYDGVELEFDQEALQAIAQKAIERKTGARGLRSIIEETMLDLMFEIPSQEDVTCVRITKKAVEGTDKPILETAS

Columns and labels:
[1] = target: T1, MecA, bacterial two-hybrid fusion (T18 or T25 fragment of adenylate cyclase Cya) (Streptococcus mutans) (UniProt Q8DW33); test: two-hybrid; BACTH bacterial two-hybrid in E. coli BTH101; blue colonies on LB agar with X-gal and IPTG; the arrangement with CcpA fused to the T25 domain
T1 sequence: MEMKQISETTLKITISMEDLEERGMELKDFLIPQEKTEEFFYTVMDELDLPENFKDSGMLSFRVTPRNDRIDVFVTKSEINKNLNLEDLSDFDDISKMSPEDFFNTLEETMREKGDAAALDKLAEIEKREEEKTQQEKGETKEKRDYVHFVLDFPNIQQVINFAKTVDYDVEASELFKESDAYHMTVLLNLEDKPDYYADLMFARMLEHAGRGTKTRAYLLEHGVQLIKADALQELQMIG

[2] = target: T1, MecA, bacterial two-hybrid fusion (T18 or T25 fragment of adenylate cyclase Cya) (Streptococcus mutans); test: two-hybrid; BACTH bacterial two-hybrid (T18 and T25 fragments of B. pertussis adenylate cyclase) in E. coli BTH101; blue colonies on LB agar with X-gal (50 µg/mL) and IPTG (0.5 mM); for CcpA: the arrangement with CcpA fused to T18

Row | Substance | binding [1] | binding [2]
1 | CcpA, bacterial two-hybrid fusion (T18 or T25 fragment of adenylate cyclase Cya) (from UniProt O07329 1-333) | binds weakly | binds
2 | ClpX, bacterial two-hybrid fusion (T18 or T25 fragment of adenylate cyclase Cya) (from UniProt Q8DUI0 1-410) |  | binds
